Experimental data reported in the supplement of paper PMC3334620.
Whole data set: some 33,000 sequences, median “E-score (-0.5 to 0.5)” near -8e-05, cut for the highest 2% near 0.23. Some of the results follow.

Molecular target: T1, Nrg2 (UniProt P38082)
T1 sequence: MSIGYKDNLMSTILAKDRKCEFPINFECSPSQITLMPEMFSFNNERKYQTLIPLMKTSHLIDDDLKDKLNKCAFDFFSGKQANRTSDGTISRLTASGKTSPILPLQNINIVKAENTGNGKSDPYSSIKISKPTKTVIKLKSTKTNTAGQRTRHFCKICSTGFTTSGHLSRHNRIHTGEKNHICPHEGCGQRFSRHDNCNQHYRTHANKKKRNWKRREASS
Assay: PBM E-score (8-mer binding enrichment) (E-score (-0.5 to 0.5)); higher = stronger / more preferred TF binding
Settings: protein concentration: 100 nM; construct: GST-full length
Method in brief: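 E-scores (a modified Wilcoxon-Mann-Whitney statistic) were assigned by the Universal PBM Analysis Suite to every ungapped eight-base word pooled with its reverse complement. The input came from universal all-10-mer Agilent arrays made double-stranded by primer extension and probed with GST-tagged yeast transcription factors at about 100-200 nM. Fluorescent anti-GST detected bound protein, and masliner normalised the scans.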

Sequence	PBM E-score
TGAAGCCA	-0.084
AAGCTGGT	0.0648
CTCTCAAA	-0.00501
GGTAAGGA	-0.241
ATTGCTTG	0.108
CGTCCACC	-0.167
AAAACAAT	0.0988
CATTGGGC	-0.178
GACTTCAC	-0.0326
ATCCTTCA	0.0591
GCGAGCGC	0.0389
GCACTCAC	-0.0616
GGCTTAAA	-0.0977
AAAATCGT	0.0788
CAGAGCGC	-0.213
AGATCCAT	-0.0254
GTGCCAAC	0.0697
CTGTTTCA	-0.0777
ATGGGAGA	-0.168
TAAACTTA	-0.0576
AGGCGCGG	-0.0682
GGAGAACC	-0.127
ATCCCTGA	0.256
AGGGTCCC	0.397
CCGAAAAG	0.0784

Sequence	PBM E-score
GCGAAGCC	-0.184
CTGTCTCA	0.0324
AGGGCCAC	-0.0634
AGTGCGGA	0.224
CCGGCTCC	-0.159
CAATATCC	0.0332
GTTCGACA	0.204
ACGTAATG	0.0417
AGCTTTGG	0.0511
AAACAGAT	-0.0424
ATCTATCG	-0.0406
AAGCCCCA	-0.116
ATTTTCTG	0.0465
ACGGAGCT	-0.238
AGCAAGTC	0.0224
ATAACTGC	-0.054
AACAGTAG	0.0701
CGCCCCTA	0.215
GTAACACA	0.0499
CGGACTGA	-0.143
CGTACTGA	0.149
CAAGAGAA	0.232
ACGACGTC	-0.0396
CGATCGGC	0.149
GGACTAAA	-0.0147

Two entries from above, bar-delimited.
Sequence | PBM E-score
ATTTTCTG | 0.0465
ACGGAGCT | -0.238

2 entries picked at random from those above, as already listed:
Sequence	PBM E-score
TGAAGCCA	-0.084
AAACAGAT	-0.0424

Remaining list, next part

Sequence	PBM E-score
AATCAGAG	0.0409
AAAGTCGC	0.0396
ATGGGCAG	0.128
CCAAACGA	0.0394
CCCGAAGA	-0.119
TACGGCCA	-0.0878
GCGAGAAC	0.196
AGTCGACC	-0.0853
GCATCCGA	-0.153
CGGCTTTA	-0.127
GCCCCGCA	-0.112
ACAGCACA	0.0761
ACCTGTCT	-0.0384
AACTAACG	0.05
ATCTGTAA	-0.0984
ACTTAGCT	-0.202
CAATTGAG	0.134
CTGCTTGC	0.00199
GCCTAGGA	-0.231
ACACCCCG	-0.0934
GCTAAGTA	0.0538
CCTTTGCA	0.0126
AGCGGCCT	-0.275
AGCTGACA	-0.0361
CCGTATTC	-0.0915

Sequence	PBM E-score
ACGCTCGA	-0.195
GCTGCGCA	-0.0835
AGTTGTAG	0.126
ACAAGGGA	-0.0167
AGTAAGAG	-0.0249
TAAACTGA	0.114
AACATAGG	0.0699
CACACCGC	-0.0842
GCGTCACA	0.0739
CCTCCAAA	-0.0762
ACGTCGGC	-0.00351
ACCGCACA	0.0729
AAAGGCTA	-0.0442
ACCTATTC	-0.0957
AAATCGGA	0.0244
GTCATTGA	0.0201
GATTCTAA	-0.063
AAGTCCGG	-0.0623
AGGTCTAA	-0.0895
ACATGCCC	-0.132
ACAATCGC	0.0957
CCCGTAGA	-0.319
ACCACGGT	-0.279
CAAGTCCG	0.00938
AAATATGT	0.113

Sequence	PBM E-score
AAAATACT	-0.0205
ATATTCAG	0.116
ATGAGTCA	-0.0267
CCCACCAG	-0.118
ACGGGACG	0.0144
AATCAGGG	0.0765
GTCAGCGA	0.00889
GCACCCCA	0.2
ATGAATTG	0.179
TGTGAACA	-0.0105
TACGTAAA	-0.176
GTCGACAC	-0.0901
CATCGTAC	0.0203
CGGGTCAA	-0.0478
CACCTTAA	0.11
GTGTTGGA	0.0641
TGGTCAAA	0.109
CCAGCCCC	-0.00105
AATTATGG	0.0237
GAGAGGGA	-0.231
ATCCCTAC	0.161
CAATAGAC	0.18
AGCTAACA	-0.0582
CCGTTAGG	-0.0482
AGGCCAAT	0.0662

Reformatted field by field: entries from further up.
ATCCCTAC
  PBM E-score = 0.161
CAATAGAC
  PBM E-score = 0.18
AGCTAACA
  PBM E-score = -0.0582
CCGTTAGG
  PBM E-score = -0.0482

Further records.

Sequence	PBM E-score
ACATCCCA	0.00386
GACGCCCA	0.00228
AAGGCGTG	-0.0825
CGACCCTC	-0.165
GGCTTTGA	0.051
AACTAAGG	0.0414
CTAATAAA	0.259
GAGAAGCA	-0.00086
AGGCGAAC	0.0815
CAAGCTAG	-0.1
CGCGACGA	0.176
AGAGTAGA	0.0687
AGGTCGCC	-0.0641
CAAACACA	0.177
CACGTTCC	-0.0446
ATGAAGCG	-0.153
CATCTAGC	0.0205
ACCGGTTC	-0.284
CATCCGCA	0.0851
CGACGACG	-0.0361
CTTTATTA	0.121
TGGGTCAA	-0.00067
AGGCAAGA	-0.0756
AAACTTAT	0.168
ACTCGCGC	0.0455

Sequence	PBM E-score
ATCTCTTC	0.0869
GAGAGTTA	-0.102
CGAAAATA	0.0971
CCATTACC	-0.0545
AGATCAGC	0.0597
AATTTATG	0.18
GATTTTGA	0.114
CACGGCCG	0.0265
CATACGCA	0.0189
AGGACGAC	-0.142
GTTGATGA	0.0639
ACTCATGA	0.143
CATTCTCA	0.195
TATATAAA	0.2
ACCTCACC	-0.0428
CCAATGGG	-0.23
AGACCTTA	0.00971
TATAATAA	0.169
TTTCCAAA	-0.157
AGATTACG	0.121
CGCTGTCA	-0.154
ACCAGTTA	0.106
